This is an account of results in the odorant receptor screen of Mainland et al. (2015).

Common to all, as to experiment: odorant receptor activation (CRE luciferase / Renilla) (fold of no-odor wells); higher = more activation
Common to all, as to details: 100 µM

Test [1] deals with OR52N4 T106I/L167R/N218I clone 1127.
Test [2] has as its system OR52N5 clone 1238.
For test [3], the system named is OR52P1 clone 1221.
Test [4] concerns OR52R1 I129T/N201Y/S245A clone 1705.
Test [5] deals with OR52W1 clone 1234.
The subject of test [6] is OR56A1 clone 1114.
The subject of test [7] is OR56A3 M51T clone 1128.
Test [8] has as its system OR56A4 clone 1724.
The subject of test [9] is OR56A5 clone 1708.
In test [10] the test system is OR56B1 C106R clone 1168.
The subject of test [11] is OR56B4 P277S clone 1224.
Test [12] deals with OR5A1 I52V clone 1131.
The test system of test [13] is OR5A1 clone 1130.
Test [14] has as its system OR5A1 clone 1507.
Test [15] deals with OR5A2 clone 1132.
Test [16] relates to OR5AC2 M200I clone 1490.
In test [17] the test system is OR5AK2 M92I clone 1335.
Test [18] concerns OR5AK2 clone 1438.
Test [19] concerns OR5AK3 clone 1336.
Test [20] has as its system OR5AL1 clone 1362.

“And” between values parts separate entries of the source, which are not always exact repeats. Equal entries are not always repeated. The list shows a part of the results. Each value is one well over the wells without odorant, computed here; the data are noisy.

Consider `C=C(C)C1CC=C(C)C(=O)C1` (stereo not given) [r-carvone], for which the odorant receptor activation in test [1] stood at 0.785; in test [2], 0.787; in test [3] it was 0.966; in [4] it was 0.96; in [5] it was 0.751; in [6] it was 0.993. Further, the odorant receptor activation is 1.02 in [7]; 0.599 in test [8]; 1.11 in test [9]; 1.08 in test [10]; 1.1 in test [11]; 0.811 in test [12]. The odorant receptor activation in test [13] amounted to 1.06; in test [14] it was 1.13; in test [15] it was 0.951; in test [16], 1.01; in test [17], 0.818; in test [18], 1.27. Also, the odorant receptor activation turned out to be 0.802 in test [19] and 1.1 in test [20].
For the compound `C=CCc1ccc(OC(C)=O)c(OC)c1` [eugenol acetate], the odorant receptor activation worked out at 0.932 in test [1]; 1.89 in test [2]; 1.67 in test [3]; 2.29 in [4]; 1.24 in test [5]; 1.25 in [6]. For the same compound, the odorant receptor activation in [7] came to 1.69; in [8] it was 2.35; in [9], 2.88; in [10], 1.84; in test [11], 1.52; in test [12], 2.03. Also, the odorant receptor activation was 1.71 in test [13]; 1.61 in test [14]; 2.14 in test [15]; 1.74 in [16]; 1.93 in test [17]; 1.52 in [18]. The odorant receptor activation turned out to be 1.6 in [19] and 1.48 in test [20].
Take `CC12CCC(C1)C(C)(C)C2=O` (stereo not given) [fenchone]: the odorant receptor activation in [1] worked out at 1.36; in [2], 1.08; in test [3], 0.861; in test [4], 0.717; in test [5], 0.962; in test [6] it was 0.804. Moreover, the odorant receptor activation in test [7] stood at 1.02; in [8] it was 0.627; in test [9], 0.689; in test [10], 0.989; in test [11] it was 0.993; in test [12] it was 0.956. Besides, the odorant receptor activation in test [13] is 0.983; in test [14] it was 1.22; in [15] it was 1.14; in test [16], 1.24; in test [17] it was 0.959; in [18], 0.969. The odorant receptor activation in [19] amounted to 0.885; in test [20] it was 0.842.
As to `CC(C)CCC(=O)O` [4-methylvaleric acid], the odorant receptor activation in test [1] amounted to 0.902; in test [2] it was 0.716; in [3], 0.965; in [4], 0.984; in test [5], 0.815; in [6] it was 11.7. Also, the odorant receptor activation was 0.817 in [7]; 1.14 in test [8]; 0.996 in test [9]; 0.809 in test [10]; 1.11 in test [11]; 0.884 in test [12]. Also, the odorant receptor activation in [13] was 0.943; in test [14] it was 0.971; in test [15] it was 1.71; in [16] it was 0.934; in test [17] it was 1.05; in [18], 1.42. Besides, the odorant receptor activation in test [19] was 0.999; in test [20], 1.2.
Take `CCCCCC(=O)O` [caproic acid]: the odorant receptor activation in test [1] turned out to be 0.743; in [2] it was 0.521; in test [3], 1.1; in test [4] it was 0.66; in test [5], 0.862; in [6], 0.932. Besides, the odorant receptor activation in [7] turned out to be 1.11; in test [8], 0.716; in [9] it was 0.9; in [10], 1.17; in [11], 1.25; in test [12] it was 1.11. Further, the odorant receptor activation in [13] was found to be 1.06; in test [14], 0.891; in test [15], 0.933; in test [16], 0.762; in [17] it was 0.71; in test [18], 0.214. The odorant receptor activation in [19] amounted to 1.08; in [20], 0.222.
In the case of `C=CC(C)(O)CCC=C(C)C` (stereo not given) [linalool], the odorant receptor activation in test [1] amounted to 0.968; in [2], 0.762; in [3], 0.998; in test [4] it was 0.945; in test [5], 0.951; in test [6] it was 1.09. Besides, the odorant receptor activation in [7] was determined as 1.13; in test [8], 0.822; in test [9] it was 1.34; in [10] it was 0.909; in test [11], 0.899; in test [12], 1.08. Also, the odorant receptor activation is 1.03 in test [13]; 1.11 in test [14]; 0.958 in [15]; 0.892 in [16]; 0.815 in [17]; 1.2 in test [18]. The odorant receptor activation in test [19] turned out to be 0.953; in test [20] it was 1.12.
For `CCCCCCCCCC=O` [decyl aldehyde], the odorant receptor activation in [1] is 1.05; in test [2], 1.29; in [3], 1.4; in test [4] it was 0.752; in test [5] it was 1.16; in test [6] it was 1.19. For the same compound, the odorant receptor activation in test [7] was determined as 1.41; in test [8], 3.26; in test [9], 0.952; in test [10], 1.3; in test [11], 1.2; in [12], 1.29. For the same compound, the odorant receptor activation in test [13] came out at 1.04; in [14], 1.21; in test [15], 1.32; in test [16], 1.2; in [17], 1.62; in test [18], 2.1. Moreover, the values for the odorant receptor activation in [19] and in test [20] were 1.3 and 1.58, respectively.
As to `CC(C)=CCCC(C)=CC=O` [citral], the odorant receptor activation worked out at 1.26 in test [1]; 1.53 in test [2]; 1.07 in test [3]; 1.01 in [4]; 2.15 in test [5]; 0.92 in test [6]. For the same compound, the odorant receptor activation was 0.896 in test [7]; 0.931 in test [8]; 0.897 in test [9]; 1.17 in [10]; 1.21 in test [11]; 1.18 in [12]. For the same compound, the odorant receptor activation came to 1.03 in [13]; 1.01 in [14]; 0.946 in [15]; 0.93 in test [16]; 1.04 in test [17]; 0.261 in test [18]. For the same compound, the odorant receptor activation in test [19] is 1.43; in [20], 0.256.
For the compound `CC=Cc1ccc(O)c(OC)c1` [isoeugenol], the odorant receptor activation in [1] stood at 5.35; in test [2] it was 3.38; in [3] it was 2.51; in [4], 1.68; in test [5], 3.29; in test [6], 1.13. The odorant receptor activation in test [7] came to 1.25; in test [8], 3.83; in [9], 1.47; in test [10], 0.878; in test [11], 1.02; in test [12], 1.32. The odorant receptor activation is 1.06 in test [13]; 1.91 and 1.6 in [14]; 0.759 in [15]; 0.884 and 2.24 in test [16]; 2.81 and 1.07 in test [17]; 1.26 in test [18]. The odorant receptor activation in [19] is 1.81 and 1.02; in [20], 1.67.
For the compound `CCCCCCCC=CC=O` [2-decenal], the odorant receptor activation in test [1] turned out to be 0.928; in [2] it was 0.925; in [3] it was 0.849; in [4], 1.26; in [5] it was 1.19; in [6], 22.3. Besides, the odorant receptor activation in [7] was 1.6; in test [8], 1.93; in [9], 1.21; in test [10] it was 0.853; in test [11], 0.91; in test [12] it was 0.786. For the same compound, the odorant receptor activation in test [13] is 1.53; in test [14], 1.49; in test [15], 1.22; in [16] it was 1.3; in [17] it was 0.593; in [18], 1.29. Further, the odorant receptor activation in test [19] is 1.31; in [20], 2.38.
`C=CCSCC=C` [diallyl sulfide]: the odorant receptor activation in [1] came to 1.07; in test [2] it was 0.929; in [3], 0.983; in [4], 0.684; in test [5], 1.02; in [6] it was 0.814. Also, the odorant receptor activation turned out to be 1.01 in [7]; 0.63 in test [8]; 0.862 in [9]; 0.923 in test [10]; 1.27 in test [11]; 1.3 in test [12]. The odorant receptor activation in [13] was 0.958; in [14], 1.07; in [15], 1.12; in test [16], 1.27; in test [17], 0.91; in test [18], 1.29. The odorant receptor activation in test [19] came out at 1.03; in test [20], 1.24.
On to `CC1CCC(C(C)C)C(O)C1` (single isomer, unassigned; (+)) [(+)-menthol], for which the odorant receptor activation in test [1] was 0.719; in [2], 0.675; in test [3], 1.25; in test [4], 1.21; in test [5], 0.981; in test [6], 18.5. In addition, the odorant receptor activation in [7] came out at 1.49; in test [8], 0.75; in test [9] it was 1.04; in test [10], 0.689; in [11] it was 1.16; in test [12] it was 0.634. The odorant receptor activation in test [13] is 1.54; in test [14], 0.937; in test [15] it was 1.55; in test [16], 0.986; in [17], 0.718; in test [18], 1.64. Further, the odorant receptor activation stood at 0.9 in test [19] and 1.43 in [20].
Consider `CCCCCCCOC(C)=O` [heptyl acetate], for which the odorant receptor activation came to 1.25 in test [1]; 0.876 in [2]; 0.907 in test [3]; 0.766 in [4]; 1.03 in test [5]; 0.799 in [6]. The odorant receptor activation is 1.27 in test [7]; 0.792 in test [8]; 0.572 in test [9]; 1.06 in [10]; 1.01 in [11]; 1.12 in test [12]. Moreover, the odorant receptor activation in test [13] is 1.03; in [14], 0.813 and 1.42; in [15], 1.01; in test [16], 0.831 and 1.16; in test [17], 1.8 and 1.08; in test [18] it was 0.993. In addition, the odorant receptor activation in [19] is 1.34 and 0.954; in [20], 1.21.
